PubChem BioAssay AID1259283 | Sanger Institute, 2017
In all, the deposit lists 794 reagents; shown is an unselected part. 14 of them (1.8%) count as active. 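Calls reflect only viability loss without drug; drug synergy does not enter the call.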 Reagents against one gene are numbered here. Viability is capped at 1. Reagent sequences are not shown. The record does not give: the amount of reagent, the time to read-out.

- Screen: 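Kinome-wide siRNA search for kinases acting with BYL719, cetuximab or trametinib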 (primary screen)
- Cells: HT115 colorectal cancer cells
- Reagent: siRNA pool against human genes
- Treatment: anchor drug given one day after siRNA: BYL719 at 1 µM, cetuximab at 5 µg/ml, trametinib at 10 nM, or DMSO vehicle alone
- Measured: 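Per-drug synergy scores plus replicate-mean viability relative to non-targeting pool #2 wells, also expressed as a robust z-score based on control wells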
- Reading the numbers: robust z-score, knock-down alone: higher = more viable cells after knock-down; viability, DMSO vs non-targeting control: higher = more viable cells; synergy score with BYL719 and synergy score with cetuximab and synergy score with trametinib: higher = stronger synergy with drug (synthetic lethal)
- Active means: 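Essential gene: robust z-score less than -3 with no drug added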
- Meaning of the calls: active = essential (z below -3, no drug); inactive = no change without drug

| target | pool no. | robust z-score, knock-down alone | viability, DMSO vs non-targeting control (fraction of control) | synergy score with BYL719 | synergy score with cetuximab | synergy score with trametinib | call |
| --- | --- | --- | --- | --- | --- | --- | --- |
| TAF1L (GeneID 138474) | 1 | -0.0606 | 0.921 | -0.0992 | -0.00889 | -0.0202 | inactive |
| TNK2 (GeneID 10188) | 1 | 0.789 | 1 | 0.0541 | 0.14 | 0.0727 | inactive |
| CEP290 (GeneID 80184) | 1 | 0.789 | 1 | -0.0224 | 0.00551 | 0.000385 | inactive |
| ELP1 (GeneID 8518) | 1 | 0.375 | 0.962 | 0.0495 | 0.035 | 0.0294 | inactive |
| IP6K2 (GeneID 51447) | 1 | -3.27 | 0.625 | -0.143 | 0.0187 | 0.104 | active |
| AKAP9 (GeneID 10142) | 1 | 0.789 | 1 | 0.0851 | 0.15 | 0.144 | inactive |
| NUP62 (GeneID 23636) | 1 | -0.731 | 0.86 | -0.0783 | 0.0426 | 0.119 | inactive |
| NEK10 (GeneID 152110) | 1 | 0.789 | 1 | -0.0079 | 0.0203 | 0.0971 | inactive |
| PIK3CA (GeneID 5290) | 1 | 0.789 | 1 | -0.00616 | 0.149 | 0.223 | inactive |
| ITPKB (GeneID 3707) | 1 | 0.789 | 1 | 0.0241 | 0.0364 | 0.0766 | inactive |
| CSNK1G2 (GeneID 1455) | 1 | 0.789 | 1 | 0.0381 | 0.163 | 0.138 | inactive |
| PEAK1 (GeneID 79834) | 1 | 0.789 | 1 | 0.0677 | 0.0707 | 0.126 | inactive |
| ILK (GeneID 3611) | 1 | 0.00463 | 0.928 | -0.0933 | -0.0875 | -0.0395 | inactive |
| ILK (GeneID 3611) | 2 | -0.4 | 0.89 | 0.0928 | 0.148 | 0.184 | inactive |
| NME4 (GeneID 4833) | 1 | -0.322 | 0.897 | -0.0193 | 0.083 | -0.0127 | inactive |
| TBCK (GeneID 93627) | 1 | 0.789 | 1 | 0.0272 | -0.0435 | 0.074 | inactive |
| MAP3K14 (GeneID 9020) | 1 | 0.522 | 0.975 | 0.16 | 0.2 | 0.105 | inactive |
| IDH2 (GeneID 3418) | 1 | 0.634 | 0.986 | -0.0341 | -0.00202 | -0.00215 | inactive |
| EIF2AK2 (GeneID 5610) | 1 | 0.0437 | 0.931 | -0.0105 | -0.0442 | 0.029 | inactive |
| PFKFB4 (GeneID 5210) | 1 | 0.789 | 1 | -0.00056 | 0.0678 | 0.211 | inactive |
| SYK (GeneID 6850) | 1 | -1.21 | 0.816 | -0.0363 | -0.0325 | 0.171 | inactive |
| UCK2 (GeneID 7371) | 1 | 0.789 | 1 | -0.0224 | 0.036 | 0.0721 | inactive |
| TJP2 (GeneID 9414) | 1 | 0.621 | 0.984 | 0.0663 | 0.112 | 0.114 | inactive |
| RELA (GeneID 5970) | 1 | 0.143 | 0.94 | -0.00317 | 0.0528 | 0.128 | inactive |
| MAPK10 (GeneID 5602) | 1 | 0.789 | 1 | 0.0299 | 0.0353 | 0.134 | inactive |
| PGK1 (GeneID 5230) | 1 | 0.652 | 0.987 | -0.0348 | 0.0899 | 0.069 | inactive |
| CDK6 (GeneID 1021) | 1 | 0.789 | 1 | 0.00646 | 0.0945 | -0.0177 | inactive |
| CDC42BPG (GeneID 55561) | 1 | 0.789 | 1 | -0.0101 | -0.0109 | -0.0255 | inactive |
| TSSK4 (GeneID 283629) | 1 | -0.142 | 0.914 | -0.107 | -0.0859 | 0.112 | inactive |
| PRP4K (GeneID 8899) | 1 | 0.481 | 0.972 | 0.0719 | 0.196 | 0.144 | inactive |
| CDC42BPA (GeneID 8476) | 1 | -1.96 | 0.746 | -0.0432 | -0.00345 | 0.207 | inactive |
| WNK3 (GeneID 65267) | 1 | -0.696 | 0.863 | -0.0047 | -0.0335 | -0.142 | inactive |
| LIMK2 (GeneID 3985) | 1 | 0.651 | 0.987 | 0.0997 | 0.0389 | 0.204 | inactive |
| ASPM (GeneID 259266) | 1 | 0.789 | 1 | 0.0106 | 0.0613 | 0.088 | inactive |
| SBK1 (GeneID 388228) | 1 | 0.789 | 1 | -0.0224 | -0.00584 | 0.091 | inactive |
| JAK1 (GeneID 3716) | 1 | 0.789 | 1 | -0.0224 | 0.0215 | -0.0773 | inactive |
| ACO1 (GeneID 48) | 1 | 0.117 | 0.938 | 0.111 | 0.133 | 0.149 | inactive |
| FGR (GeneID 2268) | 1 | 0.571 | 0.98 | 0.149 | 0.13 | 0.12 | inactive |
| AURKC (GeneID 6795) | 1 | -0.446 | 0.886 | 0.0377 | 0.0457 | 0.153 | inactive |
| TRPM7 (GeneID 54822) | 1 | -0.82 | 0.851 | 0.0118 | 0.0844 | 0.0751 | inactive |
| GSK3B (GeneID 2932) | 1 | 0.789 | 1 | -0.0224 | 0.0489 | 0.0673 | inactive |
| PDGFRA (GeneID 5156) | 1 | 0.0509 | 0.932 | 0.0832 | 0.131 | 0.0319 | inactive |
| STK31 (GeneID 56164) | 1 | 0.284 | 0.953 | -0.0158 | 0.0225 | 0.107 | inactive |
| EPHA5 (GeneID 2044) | 1 | 0.789 | 1 | 0.0311 | 0.0609 | -0.0446 | inactive |
| PDXK (GeneID 8566) | 1 | 0.789 | 1 | -0.0224 | 0.0418 | -0.107 | inactive |
| FXN (GeneID 2395) | 1 | 0.027 | 0.93 | -0.0908 | 0.0422 | -0.107 | inactive |
| TAOK3 (GeneID 51347) | 1 | -0.399 | 0.89 | -0.115 | 0.00607 | 0.0332 | inactive |
| DYRK1A (GeneID 1859) | 1 | 0.5 | 0.973 | -0.0485 | -0.0301 | 0.0538 | inactive |
| CERK (GeneID 64781) | 1 | 0.789 | 1 | -0.0224 | 0.0464 | 0.0393 | inactive |
| EPHA2 (GeneID 1969) | 1 | 0.789 | 1 | 0.0432 | 0.00919 | 0.0148 | inactive |

Records above whose gene name begins with I or i (5):
| target | pool no. | robust z-score, knock-down alone | viability, DMSO vs non-targeting control (fraction of control) | synergy score with BYL719 | synergy score with cetuximab | synergy score with trametinib | call |
| --- | --- | --- | --- | --- | --- | --- | --- |
| IP6K2 (GeneID 51447) | 1 | -3.27 | 0.625 | -0.143 | 0.0187 | 0.104 | active |
| ITPKB (GeneID 3707) | 1 | 0.789 | 1 | 0.0241 | 0.0364 | 0.0766 | inactive |
| ILK (GeneID 3611) | 1 | 0.00463 | 0.928 | -0.0933 | -0.0875 | -0.0395 | inactive |
| ILK (GeneID 3611) | 2 | -0.4 | 0.89 | 0.0928 | 0.148 | 0.184 | inactive |
| IDH2 (GeneID 3418) | 1 | 0.634 | 0.986 | -0.0341 | -0.00202 | -0.00215 | inactive |
